Out of some 360,000 compounds screened, about 7,500 (2.1%) were called active. Inconclusive means that the source gave no clear call. Such entries were picked first, then a sample of the others. Calls follow the shape of the dose curve; as a rule, active = well fitted inhibition curve with a large enough effect; inconclusive = small, poorly fitted or top-dose-only effect, or effect the other way; inactive = flat fitted curve, though single readings scatter. Potencies of inconclusive entries are doubtful fits and often do not repeat.
Assay: Nrf2 qHTS screen for inhibitors; also: nearly all actives have a fitted effect of over 60% in size
Conditions: A549 ARE-Fluc reporter, luciferase luminescence, 18-24 h; activity change, negative = inhibition: at 46 µM (top of the series)
Outline: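 Two sequential reads on A549 ARE_Fluc cells exposed to compound for 18-24 h: a CellTiter-Fluor fluorescence read for viability, then a luciferase luminescence read for Nrf2/ARE activity.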
% is scaled to controls: 0 for no effect and ±100 for the full control effect; potency is read from the fitted curve at half-maximal effect.

SMILES	Potency	activity change, negative = inhibition
Brc1ccccc1-n1nnc(-c2nccs2)n1	inconclusive: 13 µM [activator, partial curve]	–
CC(C)Cc1nnc(NC(=O)C2=COCCO2)s1	inconclusive: 5.17 µM [activator, partial curve]	–
CSc1nc(SCC(=O)O)c2c3c(sc2n1)COC(C)(C)C3	inconclusive: 29.1 µM [activator, single point]	–
CCN(CC(=O)Nc1ccc(NC(C)=O)cc1)C(=O)c1ccc(COc2ccc(C(C)(C)C)cc2)cc1	inconclusive: 13 µM [falling, partial curve, poor fit]	–
Cc1ccc(NC(=O)c2ccn(C)n2)c(Br)c1	inconclusive: 8.2 µM [activator, partial curve]	–
CCOc1ccc2nc(SCC3CC3(Cl)Cl)[nH]c2c1 (stereo not given)	inconclusive: 25.9 µM [activator, single point]	–
COc1ccc(NC(=O)COc2cc(O)c3c(c2)OC(C)(C)CC3=O)cc1	inconclusive: 18.4 µM [activator, single point]	–
O=C(Cn1c(=O)n(-c2ccc(Cl)cc2)c(=O)c2c3c(sc21)CCCCC3)Nc1cccc(Cl)c1	–	inactive: 8.54%
O=C(c1cc2nc(-c3cccs3)cc(C(F)(F)F)n2n1)N1CCCc2ccccc21	active: 18.4 µM	–
C[n+]1ccn(CC(=O)c2ccc(Br)cc2)c1	inconclusive: 13 µM [falling, partial curve]	–
Cc1cccc(NS(=O)(=O)c2c(C)n[nH]c2C)c1	inconclusive: 0.0046 µM [falling, full curve, poor fit]	–
COc1ccccc1N1CCN(C(=O)c2ccc(CN3CCOCC3)cc2)CC1	inconclusive: 2.59 µM [activator, full curve, poor fit]	–
Cn1c(-c2cc(Cl)ccc2O)nc2c1c(=O)[nH]c(=O)n2Cc1ccccc1	inconclusive: 29.1 µM [falling, single point]	–
O=C(NCc1cccc(Cl)c1)c1cc2c(s1)-c1ccccc1SC2	inconclusive: 25.9 µM [falling, single point]	–
COc1ccc(/C=N/NC(=O)c2ccccc2Cl)cc1CSc1nc2ccccc2s1	inconclusive: 4.61 µM [falling, full curve, poor fit]	–
Cc1cc(C)cc(CSc2ccc(S(=O)(=O)N3CCCC3)cn2)c1	inconclusive: 23.1 µM [falling, single point]	–
O=c1nc2ccccc2c2n1CC(CN1CCN(c3cccc(Cl)c3)CC1)N2 (stereo not given)	inconclusive: 0.092 µM [activator, full curve, poor fit]	–
CC(=O)C1(O)C(C)CC2C3CCC4CC(O)CCC4(C)C3=CCC21C (stereo not given)	inconclusive: 25.9 µM [falling, partial curve, poor fit]	–
COc1ccc(N2CCN(C(=O)Cn3c(=O)c4cccn4c4cccnc43)CC2)cc1	inconclusive: 6.51 µM [activator, full curve, poor fit]	–
CCC1CCCN1Cn1cnc2c([nH]c3ccccc32)c1=O (stereo not given)	–	inactive: 0.826%
COc1cccc(CNS(=O)(=O)c2ccc3c(c2)CC(C)N3C(=O)C2CCC2)c1 (stereo not given)	active: 11.6 µM	–
COc1ccc(CC(=O)Nc2cccc(S(=O)(=O)N3CCCCC3)c2)cc1	inconclusive: 14.6 µM [falling, partial curve]	–

Shown in CSV form: entries from further up.
SMILES,Potency,"activity change, negative = inhibition"
C[n+]1ccn(CC(=O)c2ccc(Br)cc2)c1,"inconclusive: 13 µM [falling, partial curve]",–
Cc1cccc(NS(=O)(=O)c2c(C)n[nH]c2C)c1,"inconclusive: 0.0046 µM [falling, full curve, poor fit]",–

The list continues.

SMILES	Potency	activity change, negative = inhibition
COc1ccc(CNC(=O)CCc2ccc(S(=O)(=O)N3CCCCCC3)cc2)cc1	inconclusive: 29.1 µM [falling, partial curve, poor fit]	–
O=C(CNC(=O)c1cccc2ccccc12)OC(C(=O)Nc1cc(C(F)(F)F)ccc1Cl)c1ccccc1 (stereo not given)	–	inactive: 11.6%
Cc1ccnn1-c1ccc(C(=O)OCC(=O)Nc2ccc(F)cc2)cc1	inconclusive: 29.1 µM [activator, single point]	–
COc1ccc(C)cc1NC(=O)C(=O)NCC(c1cccnc1)N1CCN(c2ccccc2F)CC1 (stereo not given)	–	inactive: -23.6%
Cc1c(/C=N/Nc2ccc([N+](=O)[O-])cn2)c2ccccc2n1Cc1ccccc1	inconclusive: 32.6 µM [activator, partial curve, poor fit]	–
O=C(Oc1c(CN2CCOCC2)cc(Cl)c2cccnc12)c1ccccc1Br	–	inactive: 7.29%
CCCn1nc(-c2nnc(-c3ccc(C)c(C)c3)o2)c2ccccc2c1=O	–	inactive: 8.04%
Cc1ccc(NC(=O)Cn2c(=O)n(CC(=O)NCCc3ccccc3)c(=O)c3ccccc32)cc1C	–	inactive: -4.84%
CCn1c(SCC(=O)c2c[nH]c3ccccc23)nc2cc(S(=O)(=O)N3CCOCC3)ccc21	–	inactive: -15.7%
CN1CCc2c(sc(NC(=O)CS(=O)(=O)c3ccc(F)cc3)c2C(N)=O)C1	inconclusive: 1.64 µM [activator, partial curve, poor fit]	–
CN1C[C@@H]2[C@@H]3C(=O)N(Cc4ccccc4)C(=O)[C@@H]3[C@](Cc3ccccc3)(C1=O)N2C(=O)c1ccc(C(C)(C)C)cc1	inconclusive: 16.4 µM [falling, single point]	–
CC(C)CN(CC(C)C)C1=N/C(=C\c2ccco2)C(=O)N1c1ccccc1	inconclusive: 25.9 µM [falling, partial curve, poor fit]	–
CC(C)=CC1C(C(=O)Nc2ccc(S(=O)(=O)N3CCOCC3)cc2)C1(C)C (stereo not given)	inconclusive: 25.9 µM [falling, partial curve, poor fit]	–
COc1cnc(-c2ccccn2)nc1Sc1ccccc1Cl	inconclusive: 29.1 µM [falling, single point]	–
CCC(=O)OCc1c(C(F)(F)F)nn(C)c1Sc1ccc(Cl)cc1	inconclusive: 32.6 µM [falling, single point]	–
COc1ccc(CN2C(=O)c3cccnc3C2=O)cc1S(=O)(=O)N(C)c1ccc(C)cc1	–	inactive: -20.3%
O=C(c1cccnc1)n1nc(-c2ccco2)nc1NCc1cccs1	inconclusive: 20.6 µM [activator, single point]	–
COc1ccc(NC(=O)CCN2CCN(S(=O)(=O)c3ccc(Br)cc3)CC2)cc1	inconclusive: 0.0052 µM [falling, full curve, poor fit]	–
O=C(Nc1ccc(-c2cnco2)cc1)c1ccccc1	inconclusive: 29.1 µM [activator, single point]	–
CC(NC(=O)CCl)c1ccccc1Br (stereo not given)	inconclusive: 3.66 µM [activator, full curve, poor fit]	–
O=C(NC(=S)N(Cc1ccccc1)Cc1ccccc1)c1ccccc1F	active: 11.6 µM	–
CCOc1ccccc1N(C)C(=O)c1cc2c(s1)-c1ccccc1OC2	inconclusive: 29.1 µM [falling, single point]	–

SMILES	Potency	activity change, negative = inhibition
CC(Oc1ccc2c(c1)c1ccnc3c4ccccc4c(=O)n2c13)C(=O)NCCN1CCOCC1 (stereo not given)	inconclusive: 16.4 µM [falling, partial curve]	–
COCCCn1[nH]c2c3c(ccc2c1=O)C(=O)c1ccccc1C3=O	inconclusive: 16.4 µM [falling, single point]	–
Cc1cc(NC(C)c2ccccc2)n2ncc(-c3ccccc3)c2n1 (stereo not given)	inconclusive: 13 µM [activator, partial curve]	–
Cc1ccccc1NC(=O)Cn1c(=O)sc2ccccc21	inconclusive: 29.1 µM [falling, single point]	–
CN(C)S(=O)(=O)c1ccc(NC(=O)N2CCN(c3cccc(C(F)(F)F)c3)CC2)cc1	active: 23.1 µM	–
Clc1nc(CN2CCOCC2)nc2sc3c(c12)CCC3	–	inactive: 5.47%
CCOC(=O)CC(NC(=O)c1cc2c(=O)n3cccc(C)c3nc2s1)c1ccc(OCC)c(OC)c1 (stereo not given)	inconclusive: 0.0046 µM [activator, full curve, poor fit]	–
Fc1ccc(N/N=C/c2ccc(N3CCOCC3)cc2)c(F)c1	inconclusive: 3.26 µM [activator, full curve]	–
CCC(CO)Oc1cc(NCc2ccc(O)cc2)c2ncn(C(C)C)c2c1 (stereo not given)	–	inactive: -12.8%
Cc1ccc(C2CC(c3ccco3)=NN2S(C)(=O)=O)cc1 (stereo not given)	inconclusive: 6.51 µM [activator, partial curve]	–
Cn1c(CN2CCCCC2)nc2cc(NS(=O)(=O)c3ccc(Cl)cc3)ccc21	inconclusive: 10.3 µM [falling, partial curve, poor fit]	–
COc1ccc(C2CC(=O)N3CN(c4ccc(C)c(Cl)c4)CSC3=C2C#N)cc1 (stereo not given)	–	inactive: 20.5%
CCOc1ccccc1NS(=O)(=O)c1ccc2c(c1)CC(C)N2C(=O)C1CC1 (stereo not given)	inconclusive: 20.6 µM [falling, single point]	–
CC(Oc1ccc(F)cc1)C(=O)Nc1cc(S(=O)(=O)N2CCOCC2)ccc1N1CCCCC1 (stereo not given)	active: 20.6 µM	–
COc1ccc(OC)c(CNC(=O)Cn2ncc3c([nH]c4ccc(C)cc43)c2=O)c1	inconclusive: 16.4 µM [activator, single point]	–
O=[N+]([O-])c1ccc(NS(=O)(=O)c2ccccc2)c(Cl)c1	active: 11.6 µM	–
CS(=O)(=O)NCCSCc1c(Cl)cccc1Cl	inconclusive: 14.6 µM [falling, partial curve, poor fit]	–
FC(F)(F)c1cccc(Cn2c3[n+](c4ccc(C(F)(F)F)cc42)CCCCC3)c1	–	inactive: 3.7%
NC(=O)C1CCN(c2nc(-c3ccccc3)nc3ccccc23)CC1	inconclusive: 9.2 µM [falling, partial curve, poor fit]	–
Cc1cccc(NC(=O)CSc2nnc3ccc(-c4ccccn4)nn23)c1	inconclusive: 2.59 µM [falling, partial curve, poor fit]	–
Cc1cc(C)n(CC(=O)NNC(=O)CCCOc2ccc(Cl)cc2C)n1	inconclusive: 1.64 µM [falling, partial curve, poor fit]	–

Source: PubChem BioAssay AID504444 (National Center for Advancing Translational Sciences (NCATS), 2011)
